The test deals with recombinant Fd7 (Fd7Strep), Aquifex aeolicus ferredoxin 7 with a C-terminal Strep-tag II (Aquifex aeolicus). The test is described as follows: pull-down; purified Fd7Strep (450 µg) incubated 1 h at room temperature, semi-anaerobic, with A. aeolicus soluble extract and avidin; 0.15 M NaCl, 0.1 M Tris-HCl pH 8; captured on a Strep-Tactin column and eluted; eluted proteins identified by mass spectrometry of bands of a denaturing gel and by in-gel PFOR and OGOR activity and mass spectrometry on a BN gel; control without Fd7Strep; only the target purified.

No constants are given. Whether binding was seen depends on the method and setting. Binding seen in cells or lysates may run through a third protein. A result given as binding can be weak or reduced; the word gives no strength.

B1: uncharacterized protein Aq_1163 of Aquifex aeolicus (protein, UniProt O67227 1-125)
chain: MWARVLKLICEELGDRELFLLEADKDLKWFGAPVKEVCEKVNFDARNSEIAQTVKASLQEVQGEGWIVYVDPFNNFADIYEANKPRYRNRWNQERPYDISETRFRVGFFPSREEAYDSSSRFQRE
Turning to B1, the binding result is reported as “binds”.

B2: reverse gyrase 2 of Aquifex aeolicus (enzyme, UniProt O67226 1-1159)
chain: MALELIERGCPNCGGVISSDRLEKGLPCSKCLPKPTEEKVCDALEELKTLKYLKPFCDTDKSLERFINFFEKAVGAKPWSLQRVWAKRVFMNQSFAIVAPTGVGKTTFGLVMSLFLKGRVLAIFPTRLLAQQAGDRLSELAQKVGVNKKILIYQSKKNIREQFLNGDWDILLGTNMFLHKNFENLINFKFKLIFIDDIDSFLKRGKNVDYLFKLLGFSGEEIKLALKENKTQRDYDRLARIRKRKRDTVLIVSSATLKPRGKRAYLFRNLLGFDVQKAITTLRNIVDVAEPVKDLEEALEKSVELIKKLGKGGLVYLSVFYGKDKVQEVKEFYRKHGINAVSYLDYKPEELYQILEKGEFDVAVGISHITNPLVRGIDLPHIIRYAVFLDPPKHVFPTELTLSPPLLHGLLLTLLNLFEGDDRLKAIQYVMYLKRYLTLREEQLDNYPRIKERVEEIKNFLENYLKDENFLKKIKESEDISLVPKEGKLYIVVGDANSYIQASGRTSRFIAGGMTKGLSVVYYSDPKAFYSLKKRLALYYMTQEIEFKRLSEVDLNKLIKEIDEDRKRAREILQGKGVAQIKDLFKTTLVIVESPNKARTIAGFFGKPQMRLVEDSVAYEVPLGDRLLVITASLGHVLDLVTDKGFFGVLDDTYPYLPVYDTIKICRETHEQHTEYEYLKKRCKGKIEDKLEIIKGVREVSYEVDEVFIATDPDAEGEKIGYDLYLLSKPFNFNIKRAEFHEVTPKAFREAIQNPREVDLNLVKAQLVRRILDRWVGFTLSHILWDAFGKKWLSAGRVQTPVLGWVIKRYEESKEKKGEILLHVNDFPLKIEIEDLMFAKEIFKDLELADISLSNPQEEEKRPLPPYTTDTVLEDANEKLHLSAHKTMKILQELFEAGYITYHRTDSTRVSDAGKYLVAKPYITKMFGEEYFYPRSWGEGGAHECIRPTRPLEPKDLEFMITAGIAEFEDPENALKVYELIFKRFMASQMRPAKVITEEIILKLPYFEWKERVVTEVKEHGFDLMYPTFKVFPKKEKLEITHKEFREVPKVYPYTQGTLIQEMKRRGLGRPSTYAQIVQTLLERHYVVEEKGFLIPTDLGREVYEYLTKHFPEWTSEELTRKLEEAMDKIERGELDYMEVLKEVHRIKVLLKEEKAFKK
On to B2, for which the binding result is on record as “binds”.

The values are drawn from article PMC10052474, “Carbon Fixation in the Chemolithoautotrophic Bacterium Aquifex aeolicus Involves Two Low-Potential Ferredoxins as Partners of the PFOR and OGOR Enzymes” (Life, 2023).
